Results are given in words; binding and its absence hold for the method and conditions named. Some binding calls cover weakened binding; strength is not graded here.
Assays:
[1] = biological target: V5-tagged full length human Tie1 expressed in COS1 cells (pcDNA3-Tie1-V5) (human) (UniProt P35590); assay: IP, Tie1-V5 COS1 cells
[2] = biological target: endogenous human Tie1 (primary human endothelial cells HDMEC/HDMVEC, HUVEC, human tissue sections, SW480 cells) (human) (UniProt P35590); assay: immunohistochemistry, human breast and breast carcinoma sections
[3] = biological target: endogenous human Tie1 (primary human endothelial cells HDMEC/HDMVEC, HUVEC, human tissue sections, SW480 cells) (human) (UniProt P35590); assay: immunohistochemistry, human skin and melanoma sections
[4] = biological target: V5-tagged full length human Tie1 expressed in COS1 cells (pcDNA3-Tie1-V5) (human) (UniProt P35590); assay: WB, IP and IF
[5] = biological target: endogenous human Tie1 (primary human endothelial cells HDMEC/HDMVEC, HUVEC, human tissue sections, SW480 cells) (human) (UniProt P35590); assay: WB, IP and IF
[6] = biological target: V5-tagged full length human Tie1 expressed in COS1 cells (pcDNA3-Tie1-V5) (human) (UniProt P35590); assay: IF, Tie1-V5 COS1 cells
[7] = biological target: endogenous human Tie1 (primary human endothelial cells HDMEC/HDMVEC, HUVEC, human tissue sections, SW480 cells) (human) (UniProt P35590); assay: immunohistochemistry, human lung carcinoma sections
[8] = biological target: endogenous human Tie1 (primary human endothelial cells HDMEC/HDMVEC, HUVEC, human tissue sections, SW480 cells) (human) (UniProt P35590); assay: immunohistochemistry, frozen human tissue sections, biotinylated IgG
[9] = biological target: endogenous human Tie1 (primary human endothelial cells HDMEC/HDMVEC, HUVEC, human tissue sections, SW480 cells) (human) (UniProt P35590); assay: WB, HDMEC
[10] = biological target: V5-tagged full length human Tie1 expressed in COS1 cells (pcDNA3-Tie1-V5) (human) (UniProt P35590); assay: WB, Tie1-V5 COS1 cells
[11] = biological target: endogenous human Tie1 (primary human endothelial cells HDMEC/HDMVEC, HUVEC, human tissue sections, SW480 cells) (human) (UniProt P35590); assay: immunohistochemistry, human kidney and hypernephroma sections
[12] = biological target: endogenous human Tie1 (primary human endothelial cells HDMEC/HDMVEC, HUVEC, human tissue sections, SW480 cells) (human) (UniProt P35590); assay: IF, HDMEC
[13] = biological target: endogenous human Tie1 (primary human endothelial cells HDMEC/HDMVEC, HUVEC, human tissue sections, SW480 cells) (human) (UniProt P35590); assay: immunohistochemistry, human lung and lung carcinoma sections
[14] = biological target: endogenous human Tie1 (primary human endothelial cells HDMEC/HDMVEC, HUVEC, human tissue sections, SW480 cells) (human) (UniProt P35590); assay: IP, HDMEC

Sequences of proteins named here, by UniProt entry; tags and fusion partners are left off. A change or cut given only in a name is not applied to a line headed by its entry.
UniProt P35590: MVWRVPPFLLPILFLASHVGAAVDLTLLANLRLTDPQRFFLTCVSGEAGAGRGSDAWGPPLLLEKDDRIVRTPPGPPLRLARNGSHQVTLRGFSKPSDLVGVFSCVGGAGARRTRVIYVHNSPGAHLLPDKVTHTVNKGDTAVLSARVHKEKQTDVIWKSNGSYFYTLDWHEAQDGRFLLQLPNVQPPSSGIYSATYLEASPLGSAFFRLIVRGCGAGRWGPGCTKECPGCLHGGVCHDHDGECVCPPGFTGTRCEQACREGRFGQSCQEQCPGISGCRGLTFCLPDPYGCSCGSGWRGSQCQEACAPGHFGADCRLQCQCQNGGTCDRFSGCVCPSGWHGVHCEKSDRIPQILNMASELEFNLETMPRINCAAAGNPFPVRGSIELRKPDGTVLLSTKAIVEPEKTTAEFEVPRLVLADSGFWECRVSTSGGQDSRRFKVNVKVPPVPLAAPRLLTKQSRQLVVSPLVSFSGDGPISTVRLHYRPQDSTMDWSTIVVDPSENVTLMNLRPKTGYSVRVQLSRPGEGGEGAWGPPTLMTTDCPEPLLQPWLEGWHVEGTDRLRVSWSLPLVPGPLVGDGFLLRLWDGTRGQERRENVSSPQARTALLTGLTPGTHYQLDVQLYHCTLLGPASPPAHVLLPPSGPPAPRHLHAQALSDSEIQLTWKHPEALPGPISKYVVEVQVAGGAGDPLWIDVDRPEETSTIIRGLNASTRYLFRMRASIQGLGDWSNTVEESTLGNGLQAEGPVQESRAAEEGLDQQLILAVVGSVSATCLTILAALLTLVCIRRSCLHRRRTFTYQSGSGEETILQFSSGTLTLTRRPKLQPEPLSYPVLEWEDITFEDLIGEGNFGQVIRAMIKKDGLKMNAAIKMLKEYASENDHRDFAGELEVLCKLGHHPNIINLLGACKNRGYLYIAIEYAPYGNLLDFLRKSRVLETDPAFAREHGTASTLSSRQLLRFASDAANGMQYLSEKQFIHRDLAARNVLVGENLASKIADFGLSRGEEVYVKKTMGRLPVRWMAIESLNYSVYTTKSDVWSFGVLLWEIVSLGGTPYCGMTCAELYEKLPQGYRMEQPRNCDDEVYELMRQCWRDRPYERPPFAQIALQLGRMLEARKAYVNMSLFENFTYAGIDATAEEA

Row | binding [1] | binding [2] | binding [3] | binding [4] | binding [5] | binding [6] | binding [7] | binding [8] | binding [9] | binding [10] | binding [11] | binding [12] | binding [13] | binding [14] | Binder
1 | binds | binds | binds | binds | binds | binds | binds | binds | binds | binds | binds | binds | – | – | B2 IgG1 (isolate s-B2) (antibody, V domains shown) VH: EVQLLESGGGLVQPGGSLRLSCAASGFTFSIYGMAWVRQAPGKGLEWVSVISPSGGQTFYADSVKGRFTISRDNSKNTLYLQMNSLRAEDTAVYYCARVYYYGMDVWGQGTTVTVSS VL: DIQMTQSPATLSLSPGERATLSCRASQSVSSYLAWYQQKPGQAPRLLIYDASNRATGIPARFSGSGSETDFTLTISSLEPEDFAVYYCQQRSKWPRTFGQGTKLEIK
2 | binds | binds | binds | binds | binds | binds | – | – | binds | binds | binds | binds | binds | – | D11 IgG1 (isolate s-D11) (antibody, V domains shown) VH: EVQLLESGGGLVQPGGSLRLSCAASGFTFSGYAMWWVRQAPGKGLEWVSSISPSGGATAYADSVKGRFTISRDNSKNTLYLQMNSLRAEDTAVYYCARDAGSYYWGWFDPWGQGTLVTVSS VL: DIQMTQSPATLSLSPGERATLSCRASQSISSYLAWYQQKPGQPPRLLIYDASSRVTGIPARFSGSGFGTDFTLTISSLEPEDFAVYYCLQRSSWPRTFGQGTKLEIK
3 | binds | – | – | binds | binds | binds | – | – | binds | binds | – | binds | – | binds | A2 IgG1 (isolate s-A2) (antibody, V domains shown) VH: EVQLLESGGGLVQPGGSLRLSCAASGFTFSRYTMMWVRQAPGKGLEWVSGIYPSGGVTLYADSVKGRFTISRDNSKNTLYLQMNSLRAEDTAVYYCARVNYYDSSGYGPIAPGLDYWGQGTLVTVSS VL: DIQMTQSPGTLSLSPGERATLSCRASRSVIISYVAWYQQKPGQAPRLLIYGASTRATGIPDRFSGSGSGTDFTLTISRLEPEDFAVYFCQLYGRSPRIIFGQGTRLEIK
4 | binds | – | – | binds | binds | binds | – | – | binds | binds | – | binds | – | binds | B9 IgG1 (isolate s-B9) (antibody, V domains shown) VH: EVQLLESGGGLVQPGGSLRLSCAASGFTFSSYVMMWVRQAPGKGLEWVSGIYPSGGWTYYTDSVKGRFTISRDNSKNTLYLQMNSLRAEDTAVYYCARVNYYDSSGYGPIAPGLDYWGQGTLVTVSS VL: DIQMTQSPSSLSASVGDRVTITCRASQSVSSHLSWFQQRPGKAPNLLIYHASSLQSGVPSRFSGSGSGTDFTLTISSLQPEDFATYYCQQSYATSSITFGQGTRLDIK
5 | binds | – | – | binds | binds | binds | – | – | binds | binds | – | binds | – | binds | C10 IgG1 (isolate s-C10) (antibody, V domains shown) VH: EVQLLESGGGLVQPGGSLRLSCAASGFTFSAYGMSWVRQAPGKGLEWVSVIYPSGGWTYYADSVKGRFTISRDNSKNTLYLQMNSLRAEDTAVYYCARVNYYDSSGYGPIAPGLDYWGQGTLVTVSS VL: DIQMTQSPGTLSLSPGERATLSCRASQSVSSSYLAWYQQKPGQAPRLLIYGASSRATGIPDRFSGSGSGTDFTLTISRLEPEDFAVYYCQQYNNWPRTFGQGTKVEIK
6 | binds | – | – | binds | binds | binds | – | – | binds | binds | – | binds | – | binds | C2 IgG1 (isolate s-C2) (antibody, V domains shown) VH: EVQLLESGGGLVQPGGSLRLSCAASGFTFSRYKMKWVRQAPGKGLEWVSVIYPSGGGTGYADSVKGRFTISRDNSKNTLYLQMNSLRAEDTAVYYCARVNYYDSSGYGPIAPGLDYWGQGTLVTVSS VL: AQSVLTQPDSVSGSPGESITISCTGSSRDVGGYNYVSWYQQHPGKAPKLLLYDVTYRPSGISGRFSGSKSGDTASLTISGLRTEDEADYYCSSSIGTRTYVFGSGTKVTVLR
7 | binds | – | – | binds | binds | binds | – | – | binds | binds | – | binds | – | binds | C7 IgG1 (isolate s-C7) (antibody, V domains shown) VH: EVQLLESGGGLVQPGGSLRLSCAASGFTFSRYVMYWVRQAPGKGLEWVSVIYPSGGATYYADSVKGRFTISRDNSKNTLYLQMNSLRAEDTAVYYCARRGSSGAFDYWGQGTLVTVSS VL: AQSVLTQPASVSGSPGQSITISCTGTSSDIGRYNYASWYQQRPGKSPKLLIYEVSDRPSGVSNRFSGSKSGNTASLIISGLQAEDEADYYCSSYSSTNSLQVVFGGGTKLSVLG
8 | binds | – | – | binds | binds | binds | – | – | binds | binds | – | binds | – | binds | A10 IgG1 (isolate s-A10) (antibody, V domains shown) VH: EVQLLESGGGLVQPGGSLRLSCAASGFTFSNYVMVWVRQAPGKGLEWVSGIYPSGGHTKYADSVKGRFTISRDNSKNTLYLQMNSLRAEDTAVYYCARVNYYDSSGYGPIAPGLDYWGQGTLV VL: DIQMTQSPGTLSLSPGERATLFCRASQRVTSNSLAWYQQRPGQAPRLLIYDASTRATGIPDRFSGSGSGRDFTLTISRLEPEDFAVYYCQRYGSSVLYSFGQGTKLEIT
9 | binds | – | – | binds | binds | binds | – | – | binds | binds | – | binds | – | binds | H4 IgG1 (isolate s-H4) (antibody, V domains shown) VH: EVQLLESGGGLVQPGGSLRLSCAASGFTFSSYKMGWVRQAPGKGLEWVSSIYPSGGWTHYADSVKGRFTISRDNSKNTLYLQMNSLRAEDTAVYYCARVLLHYFDYWGQGTLV VL: AQSVLTQPASVSGSPGQSITISCTGTSSDVGGYKYVSWYQQHPGKAPKLIISDVNNRPSGVSDRFSGSKSGNTASLTISGLQAEDDGDYYCSSYASSSYTSSTTWVFGGGTKLTVLG

— US20110059105A1
